# In the supplement of paper PMC3334620:
# Whole data set: some 33,000 sequences, median “E-score (-0.5 to 0.5)” near -0.0014, cut for the highest 2% near 0.25. This is one part of the list.
# Biological target: T1, Cad1 (UniProt P24813)
# T1 sequence: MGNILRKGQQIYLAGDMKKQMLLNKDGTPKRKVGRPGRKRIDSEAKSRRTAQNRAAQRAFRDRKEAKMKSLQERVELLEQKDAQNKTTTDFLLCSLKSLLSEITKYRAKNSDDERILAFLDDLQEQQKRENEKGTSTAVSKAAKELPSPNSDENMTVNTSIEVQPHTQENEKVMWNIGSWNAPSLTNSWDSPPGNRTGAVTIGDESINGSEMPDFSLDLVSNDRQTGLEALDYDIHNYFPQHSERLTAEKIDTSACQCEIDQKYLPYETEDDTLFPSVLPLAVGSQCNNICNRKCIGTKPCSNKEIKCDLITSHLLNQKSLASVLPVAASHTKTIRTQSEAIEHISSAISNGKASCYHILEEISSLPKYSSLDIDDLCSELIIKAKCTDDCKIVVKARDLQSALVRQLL
# Experiment: PBM E-score (8-mer binding enrichment) (E-score (-0.5 to 0.5)); higher = stronger / more preferred TF binding
# Settings: protein concentration: 100 nM; construct: GST-full length
# How it was run: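 GST-tagged yeast TFs (full-length or DNA-binding domain) were made by PURExpress in vitro transcription/translation and applied at about 100-200 nM to universal all-10-mer Agilent arrays. The arrays were made double-stranded by primer extension, on fresh or once-stripped slides. Bound protein was detected with fluorescent anti-GST, and scans were normalised with masliner. Each ungapped eight-base word, pooled with its reverse complement, received an E-score (modified Wilcoxon-Mann-Whitney statistic) from the Universal PBM Analysis Suite.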
row,Sequence,PBM E-score
1,AATCAACC,-0.00133
2,AGAAGTGC,-0.142
3,AGCAAGCT,-0.239
4,GTGTTCTA,0.113
5,ACGGCGTA,0.0105
6,ATTTGAGA,0.0291
7,AAGGAACC,0.219
8,AAAAGTAT,0.0548
9,CTAAGAGC,-0.119
10,AACCTCGA,0.0882
11,CTAAATTC,-0.0152
12,CGGTTCAC,-0.109
13,TCCGCACA,-0.0175
14,ATAAAAAA,0.148
15,CGTGGCGA,0.0504
16,AACGTTAG,0.047
17,GGGTACTA,0.0733
18,CACTCCTA,-0.141
19,ATGAGGTA,-0.02
20,GACTAAGA,0.0179
21,AAGACGTA,0.0444
22,AAGCGGAT,0.0466
23,ATCAGTTA,0.212
24,AGGTGGAT,-0.0872
25,ACGATGAT,-0.138

row,Sequence,PBM E-score
1,CTTTTCTA,-0.221
2,CGATCCAG,-0.0727
3,GTTCGGCA,0.0445
4,CTTCTAAA,-0.0456
5,TAGACTGA,-0.0281
6,ATGTGTGA,-0.0819
7,ATCTTTCC,0.0734
8,GATACGTA,0.0757
9,CCATGCCA,-0.0107
10,AGTGAAAG,0.0653
11,CAAGGTCA,-0.212
12,ATTCTCGC,-0.144
13,AAGTAATC,0.179
14,GAACAGTC,-0.0401
15,ATCTTGGC,-0.0337
16,AGAAAGAG,-0.111
17,CAGGATAG,0.107
18,AGGTGCCC,-0.214
19,CAAACTAG,-0.224
20,ATGAACAT,0.124
21,CCCGTTTC,-0.03
22,AGCGCCAG,0.00152
23,CTGAATGC,-0.025
24,ATCCATTG,0.0418
25,GGCATGGA,-0.0221

# Taken from above (2 entries):
row,Sequence,PBM E-score
6,ATGTGTGA,-0.0819
7,ATCTTTCC,0.0734

# Next part

row,Sequence,PBM E-score
1,AGCACCCT,-0.21
2,GTTATGTA,0.0817
3,ACTCAGGC,0.0666
4,CCTGTCAA,-0.0529
5,ATCCCGTG,0.243
6,AGGAGCTG,-0.159
7,AAGGGCGA,-0.206
8,TCCAGGGA,-0.219
9,CACACTCC,0.0254
10,ACAGGGCG,0.0956
11,CGGGAGAC,-0.106
12,GCTCGGGA,-0.13
13,AACATATC,0.0764
14,GGATAGAA,0.0535
15,GCTAGACA,0.0865
16,CCTGCGAG,-0.103
17,GCCCTGCA,-0.0779
18,CTCCTGAA,-0.16
19,AGACGTAA,0.0228
20,AACCGAAG,0.069
21,AAGATACC,0.188
22,CGGCTGTA,-0.112
23,CCAGACAC,-0.204
24,CTCGGTCC,0.0048
25,CGCCCAAG,-0.155

row,Sequence,PBM E-score
1,TCGAATAA,0.0909
2,CGGTTACA,0.177
3,CATTACCC,-0.225
4,CGTGATAG,0.03
5,CATCGCCC,-0.238
6,CTAAACTA,-0.0586
7,ATTTTAAG,0.0929
8,ACAGGCTA,-0.232
9,TGATTAAA,0.123
10,ACCGAGAT,0.0127
11,CACTCTCG,0.0619
12,AAGGGCGT,-0.0183
13,AGGTAACG,-0.0725
14,CATTTTCG,0.0501
15,GTGTGGAA,-0.03
16,CCATGGAA,-0.0381
17,CTCTGTTA,-0.0607
18,ATTGGAAC,0.0974
19,AATGACCT,-0.188
20,GCACTGTA,0.0956
21,CTACATCA,-0.00088
22,TAGTATCA,0.265
23,GAAAGGAA,0.0254
24,AGGTGATG,-0.0954
25,ATAGACGG,0.0351

# 6 entries from above, as tab-separated lines.
row	Sequence	PBM E-score
13	AGGTAACG	-0.0725
14	CATTTTCG	0.0501
15	GTGTGGAA	-0.03
16	CCATGGAA	-0.0381
17	CTCTGTTA	-0.0607
18	ATTGGAAC	0.0974

# 2 entries from above in another layout:
row | Sequence | PBM E-score
1 | TCGAATAA | 0.0909
3 | CATTACCC | -0.225

# (next part)

row,Sequence,PBM E-score
1,AGCGAGAG,0.149
2,CTGACCAG,-0.00702
3,TAACTGTA,-0.0191
4,AGTTACGC,-0.0449
5,GCCACGAC,0.101
6,AGTAGAGG,-0.313
7,ACTTATTG,0.0709
8,AAGGGTTC,-0.113
9,ATTATGTG,0.25
10,AAACTGAA,0.0681
11,ACGACCGG,-0.151
12,CGAGTTCA,0.18
13,AAGGATAC,-0.0624
14,GGGCCTAA,0.00864
15,CCTTTACA,0.00128
16,CCACGATA,0.0424
17,ATGTCGTC,-0.0531
18,ACTTCGCC,0.0662
19,CTCTAATA,0.142
20,ACCTCGTG,0.0262
21,AACAGCCA,0.106
22,CTCACGTA,-0.0707
23,AAGTTTAA,-0.14
24,CGAACGTC,-0.111
25,AAAGGGTT,-0.126

row,Sequence,PBM E-score
1,ACATACAA,-0.103
2,GACCTGCA,-0.116
3,AATACAGT,-0.078
4,AGGTGCTG,0.0156
5,AAAATTAG,0.269
6,AACGAGAC,-0.0583
7,CATACAAA,0.0561
8,AAACCCTG,-0.0698
9,TACCCCAA,-0.111
10,CCCCAGCG,-0.181
11,CACTCGGG,0.0224
12,TCGCATAA,0.137
13,GTGATACA,0.00492
14,CATCCGTC,-0.00289
15,AGATTGCC,0.00042
16,CGACAATA,0.204
17,CTCCCAAG,-0.193
18,GTCCTTCA,0.0516
19,ATGCCTGA,-0.0626
20,ATTAGCCC,-0.0965
21,ACCTAATC,0.259
22,AAAGATAT,0.277
23,GAAACATC,-0.0415
24,GAATGCCC,-0.363
25,ATGTGGAG,-0.14

row,Sequence,PBM E-score
1,CCAGATTC,-0.205
2,CACGCCCG,-0.0611
3,TCGCAGCA,0.0936
4,ATTGCGCG,0.307
5,CATAAGGC,0.0526
6,GACACGGC,-0.0501
7,GGAAGCAA,-0.0549
8,ATCATTTA,0.114
9,ACAATGCC,-0.107
10,GCCTTGCA,-0.117
11,ATAAAGGG,-0.175
12,CCTCTAAA,-0.0976
13,AGCATCTC,-0.177
14,AGCAGAGC,-0.268
15,AGGACGTC,0.0529
16,ACCCTCTC,-0.183
17,CACCATCG,-0.125
18,GTCCCTAA,-0.0901
19,CTCGCAAA,-0.106
20,GACTGTAC,-0.137
21,GCACAAAA,0.18
22,CATTACGA,0.0111
